# The other results are listed elsewhere or left out. These are further read-outs of the screen, such as a control signal, another cell line or another target. No call is given for them. Most of these compounds were active or inconclusive in the main read-out, so they are no random draw. The note in brackets gives the kind of curve behind each potency; many fits are weak.
# Assay: qHTS Assay for Lipid Storage Modulators in Drosophila S3 Cells;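 as to cell number change: cells counted by Cell Tracker Red CMTPX staining in the red channel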
# Details: BODIPY lipid droplet fluorescence, 18-24 h; for cell number change: measured here: cell count max response, cells fed with added oleic acid
# Procedure, shortened: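 Drosophila S3 cells loaded with oleic acid (400 uM, as added) and compounds at several concentrations; lipid droplets imaged by 488-nm laser-scanning cytometry, 500–530 nm intensity and object ratio to cell channel. Percent activity normalized to 20 uM Triacsin C.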
# [1] = measured here: lipid fluorescence (Fed channel) AC50, cells fed with added oleic acid
# [2] = measured here: cell number channel AC50, cells fed with added oleic acid
Structure (SMILES),cell number change,AC50 [1],AC50 [2]
COc1ccc(Cc2nc3ccc(C(=O)N4CCN(C)C(C)C4)cc3o2)cc1OC (stereo not given),-15.6%,,
Cc1ncc(CN2CCCC(C(=O)Nc3ccc(-c4cccc(F)c4)cc3)C2)n1C (stereo not given),,"29.1 µM [rising, single point]",
CCOc1cc(/C=N/Nc2nc(-c3cccc(S(=O)(=O)N4CCCC4)c3)cs2)ccc1O,1.3%,,
Cc1ccc(NC(=O)c2cc(-c3ccco3)nc3ccccc23)cc1S(=O)(=O)N1CCOCC1,38.9%,"18.4 µM [rising, single point]","16.4 µM [rising, single point]"
COc1ccc(C(=O)Nc2c(-c3ccccc3)nc3ccccn23)c(OC)c1,1.42%,"14.6 µM [rising, partial curve]",
CC1=NN(C(N)=S)C(=O)C1N=Nc1cccc(C(=O)O)c1 (stereo not given),4.67%,"0.58 µM [rising, full curve]",
CCCC(=O)OCC(=O)Nc1ccc(OC(F)F)cc1,43.3%,"0.00517 µM [rising, full curve, poor fit]","6.51 µM [rising, partial curve, poor fit]"
OC1C(O)C(O)C(O)C(O)C1O (stereo not given),-23.8%,"29.1 µM [falling, single point]",
COc1ccc(CCNC(=O)C2CCCN2C(=O)NC2CCCCC2)cc1OC (stereo not given),-1.6%,"29.1 µM [falling, single point]",
CC(C)CCC(O)(CCC(C)C)C(=O)NN1CCCCC1,-13%,,
COc1cc(/C=C2/C(=N)N3C(=NC2=O)SN=C3S(C)(=O)=O)ccc1OC(=O)c1ccco1,-11.5%,"29.1 µM [falling, single point]",
O=C(NCCN1CCOCC1)c1c(F)c(F)c(F)c(F)c1F,-37.8%,"11.6 µM [falling, partial curve]","0.517 µM [falling, full curve]"
O=C(N=NC(=O)c1ccco1)c1ccc2c(O)n(N3C(=O)c4ccccc4C3=O)c(O)c2c1,-0.782%,"1.84 µM [rising, partial curve, poor fit]","1.64 µM [rising, partial curve, poor fit]"
O=C(N/N=C/c1ccc(Cl)cc1)C(=O)N1CCCCCC1,-3.32%,"29.1 µM [rising, single point]",
Cc1cc(S(=O)(=O)Nc2nc(CN3CCOCC3)nc3sc4c(c23)CCCC4)ccc1F,,"2.31 µM [rising, partial curve]","3.66 µM [rising, single point]"
Cc1cc(F)ccc1NC(=O)C(C)n1c2ccccc2c2nc(=O)cc(C)n21 (stereo not given),28.3%,"6.51 µM [falling, single point]",
CCCCn1c(N)c(N(CCOC)C(=O)C2CC(=O)N(c3ccc(CC)cc3)C2)c(=O)[nH]c1=O (stereo not given),11.8%,"6.51 µM [falling, single point]",
CC(=O)N1C(=O)/C(=C2\SC(=S)N(NC(=O)c3ccc(O)cc3)C2=O)c2ccccc21,5.22%,,"0.82 µM [rising, single point]"
O=c1[nH]c(-c2ccccc2)c(-c2ccccc2)[nH]1,8.05%,"3.26 µM [falling, single point]",
Cc1ccc(C(=O)NC(=S)NCc2cccnc2)cc1,11.9%,"7.08 µM [rising, full curve, poor fit]",

# Compounds above with an NH in an aromatic ring:
Structure (SMILES),cell number change,AC50 [1],AC50 [2]
CCCCn1c(N)c(N(CCOC)C(=O)C2CC(=O)N(c3ccc(CC)cc3)C2)c(=O)[nH]c1=O (stereo not given),11.8%,"6.51 µM [falling, single point]",
O=c1[nH]c(-c2ccccc2)c(-c2ccccc2)[nH]1,8.05%,"3.26 µM [falling, single point]",

# Next records.

Structure (SMILES),cell number change,AC50 [1],AC50 [2]
CC(c1nc2ccccc2c(=O)[nH]1)N(C)CCOc1ccc(Cl)cc1 (stereo not given),-0.936%,,
CC(=O)OC1(C(F)(F)F)Oc2ccccc2NC1=O (stereo not given),-34.3%,"3.66 µM [falling, full curve]","3.66 µM [falling, full curve]"
CC1Cc2ccccc2N1C(=O)CCS(=O)(=O)c1cccs1 (stereo not given),-17.7%,"0.82 µM [falling, single point]",
COc1ccc(COc2cc(-c3cccc(OC)c3)nc3ccc(NC(=O)c4ccc(OC)cc4)cc23)cc1,8.57%,"8.2 µM [rising, partial curve]",
NC(=O)c1ccccc1OCC(=O)Nc1cccnc1Cl,-9.77%,"3.26 µM [rising, partial curve, poor fit]",
COc1ccc(NC(=O)c2cccc(N3C(=O)C4C5C=CC(C6CC56)C4C3=O)c2)c(OC)c1 (stereo not given),,"6.51 µM [falling, single point]",
Cc1ncc(CN2CCCC(C(=O)Nc3ccc(-c4ccco4)cc3)C2)n1C (stereo not given),4.32%,,
O=C(c1ccc(S(=O)(=O)NCc2ccco2)cc1)N1CCCC1,,,"0.00517 µM [falling, full curve, poor fit]"
COc1ccc(CNC(=O)C(C)N2C(=O)COc3ccc(C)cc32)c(OC)c1 (stereo not given),-34.2%,"1.46 µM [falling, partial curve]","0.92 µM [falling, full curve, poor fit]"
CC(C)CCN1C(=O)c2ccccc2C1C(=O)NCc1cccnc1 (stereo not given),,"6.51 µM [rising, single point]",
Cc1ccc(-c2onc(C)c2C)cc1S(=O)(=O)N1CCOc2ccccc21,21.4%,"29.1 µM [falling, single point]",
COc1ccc(NC(=O)C(CC(=O)O)Cc2ccc(Br)cc2)cc1 (stereo not given),31.2%,,"0.00411 µM [rising, full curve, poor fit]"
CCOc1ccc2[nH]c(=O)c(CN(Cc3ccc(F)cc3)C(=O)N3CCCC3)cc2c1,-4.88%,"0.092 µM [rising, full curve, poor fit]",
Cc1ccccc1C(=O)OC1CCCN(C)C1 (stereo not given),16.8%,,
COc1ccc2c(c1)c(=O)oc1cc(OCC(=O)NCC3CCC(C(=O)O)CC3)ccc12 (stereo not given),-0.386%,"0.00461 µM [rising, full curve, poor fit]",
Nc1ccc(Cl)c(S(=O)(=O)Nc2ccc(Cl)cc2)c1,34.4%,"6.51 µM [rising, partial curve]","6.51 µM [rising, partial curve, poor fit]"
COc1cccc(-c2c(C(=O)N/N=C/c3ccncc3)nnn2-c2nonc2N)c1,7.66%,"7.31 µM [falling, partial curve]",
CCOc1ccc(Br)cc1S(=O)(=O)NC1CC(C)(C)NC(C)(C)C1,-9.82%,"0.92 µM [rising, full curve, poor fit]",
C/C(CCC(C)C)=N\NC(=S)Nc1cc(S(=O)(=O)N2CCOCC2)ccc1N1CCOCC1,-20.6%,"0.116 µM [falling, full curve, poor fit]",
CCN(c1ccc(OC)cc1)S(=O)(=O)N1CCCC(C(=O)NCc2ccccc2Br)C1 (stereo not given),-29.1%,"29.1 µM [falling, single point]",

Structure (SMILES),cell number change,AC50 [1],AC50 [2]
CSc1ccc(CN(C)C(=O)c2cc(=O)[nH]c3ccccc23)cc1,12.9%,"29.1 µM [falling, single point]","0.651 µM [rising, partial curve, poor fit]"
O=C(NC1CCCCC1)c1cc(-c2ccc(O)cc2)on1,28.3%,"0.58 µM [falling, single point]",
COc1ccc(Nc2ccnc(Nc3ccc(OC)cc3)n2)cc1,-56.9%,,"29.1 µM [falling, single point]"
COc1ccccc1C(=O)NCC(=O)NCCc1ccc(Cl)cc1,13.9%,"6.51 µM [rising, single point]",
CCOC(=O)/C(C#N)=C\c1cc(C)n(-c2ccccc2)c1C,-0.636%,"0.206 µM [rising, partial curve, poor fit]",
COc1ccc(OC)c(/C=N/NC(=O)c2cc[n+](Cc3ccccc3)cc2)c1,-19.2%,,"0.116 µM [falling, full curve, poor fit]"
O=C1C=C(O)C(n2cncn2)C(c2ccc(F)cc2)C1 (stereo not given),3.78%,,
Cc1cc(C)c2sc(NC(=O)c3ccc(N4C(=O)CCC4=O)cc3)nc2c1,11.1%,,
CCc1ccc(CN(C)C(=O)C2CCC(=O)N(CC3CCCCC3)C2)cc1 (stereo not given),-11.2%,,"5.62 µM [rising, single point]"
CC(NC(=O)CN(C)S(=O)(=O)c1cccc2nsnc12)c1ccccc1 (stereo not given),4.58%,"6.51 µM [rising, single point]","6.51 µM [rising, partial curve]"
CCCCNc1ccc(C(CC(N)=O)NC(=O)c2cc(C)cc(C)c2)cc1[N+](=O)[O-] (stereo not given),0.898%,"6.51 µM [rising, single point]",
CC1(C)CC(=O)C(C=N)=C(O)C1,-33.1%,"2.31 µM [falling, full curve, poor fit]","2.59 µM [falling, full curve, poor fit]"
Cc1c(C)n2c(SCC(=O)N3CCCCCC3)nnc2[nH]c1=O,-17.8%,"25.9 µM [falling, partial curve, poor fit]",
CCOC(=O)N1CCN(C(=S)NCCOC)CC1,-33%,"1.46 µM [falling, full curve]","1.16 µM [falling, full curve]"
CC1=NNC(=O)C1C(c1ccc(Cl)cc1)C(C#N)C#N (stereo not given),-9.93%,"6.51 µM [rising, single point]",
Cc1ccc(S(=O)(=O)N2CCC(C(=O)OCC(=O)N(C)CC(=O)Nc3ccc(F)cc3)CC2)cc1C,-1%,,
CCOC(=O)C1Cn2c(nc3c(c2=O)C2(CCCC2)Cc2ccccc2-3)S1 (stereo not given),-29.3%,"0.00461 µM [falling, full curve, poor fit]","1.3 µM [falling, full curve, poor fit]"
COCCN(C(=O)c1ccc(COc2ccccc2)o1)c1c(N)n(CC(C)C)c(=O)[nH]c1=O,-11.3%,"29.1 µM [falling, single point]",

# — PubChem BioAssay AID2685 (National Center for Advancing Translational Sciences (NCATS), 2010)
